# In the supplement of paper PMC8728848:
# The other results are listed elsewhere or left out.
# B1: BSR4 (Toxoplasma gondii), Q95NL6 (protein)
# chain: MVMMGSMQQRRGGLRSNARQLLAVCMSGVVFFSSGQAVADNLLEGLLHRTLQQQVEVTSRLTVAGSDAKCDFFTPATQDSPPVSGSLTLSKGRMTATFECSATQALSISTIPTNIEQNVCDPKKTTNGTVCQFGANGSAGTEVTLKDLLETDRIVNWKVNEQREESNKSQKWSLELHNEDLPLTDKAFVVGCQATSAARGTESGKTAACKLTVNVEARASSLAENNVVTCAYGKGSNPNPVEVEMSTEKNTLTINCGSDGSLQPTTYAEEYCVADSKDVNRCSTTRFVEIFPKFLKSWWVTETQKRTSATLTIPQTDLPEADQQFLVGCVPKKTAPEDPKKDKESGTETGAPTSCTVLVTVKAASSASHASPTVQILAAASSAAA
# Tests used:
# Experiment in all cases: glycan array binding signal (z-score within array); higher = stronger binding
# Conditions in all cases: glycan notation: IUPAC condensed, linker removed
# [1] = target: Neu5Ac(a2-3)Gal(b1-4)[Fuc(a1-3)]GlcNAc(b1-3)Gal
# Procedure, shortened: (§1)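 The binding signal is a Z-score computed within each array and averaged over linkers. Arrays of the same protein sequence at different concentrations or buffers were also averaged together. Data originate from 3228 arrays in the Consortium for Functional Glycomics database, kept only where the protein sequence was available.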
# [2] = target: Neu5Ac(a2-3)Gal(b1-4)[Fuc(a1-3)]GlcNAc(b1-3)Gal(b1-4)GlcNAc
# Procedure, shortened: as §1
# [3] = target: Neu5Ac(a2-3)Gal(b1-4)[Fuc(a1-3)]GlcNAc(b1-3)Gal(b1-4)[Fuc(a1-3)]GlcNAc(b1-3)Gal(b1-4)[Fuc(a1-3)]GlcNAc
# Procedure, shortened: as §1
# [4] = target: Neu5Ac(a2-3)Gal(b1-4)[Fuc(a1-3)]GlcNAc(b1-3)GalNAc
# Procedure, shortened: as §1
# [5] = target: Neu5Ac(a2-3)Gal(b1-4)[Fuc(a1-3)]GlcNAc(b1-6)[Gal(b1-3)]GalNAc
# Procedure, shortened: as §1
# [6] = target: Neu5Ac(a2-3)Gal(b1-4)[Fuc(a1-3)]GlcNAc(b1-6)[Neu5Ac(a2-3)Gal(b1-3)]GalNAc
# Procedure, shortened: as §1
# [7] = target: Neu5Ac(a2-3)Gal(b1-4)[Fuc(a1-3)]GlcNAc6S
# Procedure, shortened: as §1
# [8] = target: Neu5Ac(a2-3)Gal6S(b1-4)GlcNAc
# Procedure, shortened: as §1
# [9] = target: Neu5Ac(a2-3)Gal6S(b1-4)[Fuc(a1-3)]GlcNAc
# Procedure, shortened: as §1
# Neu5Ac(a2-3)GalNAc = target: Neu5Ac(a2-3)GalNAc
# Procedure, shortened: as §1
# [10] = target: Neu5Ac(a2-3)GalNAc(b1-4)GlcNAc
# Procedure, shortened: as §1
# [11] = target: Neu5Ac(a2-3)[GalNAc(b1-4)]Gal(b1-4)Glc
# Procedure, shortened: as §1
# [12] = target: Neu5Ac(a2-3)[GalNAc(b1-4)]Gal(b1-4)GlcNAc
# Procedure, shortened: as §1
# [13] = target: Neu5Ac(a2-3)[GalNAc(b1-4)]Gal(b1-4)GlcNAc(b1-3)GalNAc
# Procedure, shortened: as §1
# [14] = target: Neu5Ac(a2-3)[Neu5Ac(a2-6)]GalNAc
# Procedure, shortened: as §1
# Neu5Ac(a2-6)Gal = target: Neu5Ac(a2-6)Gal
# Procedure, shortened: as §1
# Neu5Ac(a2-6)Gal(b1-4)Glc = target: Neu5Ac(a2-6)Gal(b1-4)Glc
# Procedure, shortened: as §1
# [15] = target: Neu5Ac(a2-6)Gal(b1-4)GlcNAc
# Procedure, shortened: as §1
# [16] = target: Neu5Ac(a2-6)Gal(b1-4)GlcNAc(b1-2)Man(a1-3)Man(b1-4)GlcNAc(b1-4)GlcNAc
# Procedure, shortened: as §1
# [17] = target: Neu5Ac(a2-6)Gal(b1-4)GlcNAc(b1-2)Man(a1-3)[Gal(b1-4)GlcNAc(b1-2)Man(a1-6)]Man(b1-4)GlcNAc(b1-4)GlcNAc
# Procedure, shortened: as §1
# [18] = target: Neu5Ac(a2-6)Gal(b1-4)GlcNAc(b1-2)Man(a1-3)[GlcNAc(b1-2)Man(a1-6)]Man(b1-4)GlcNAc(b1-4)GlcNAc
# Procedure, shortened: as §1
# [19] = target: Neu5Ac(a2-6)Gal(b1-4)GlcNAc(b1-2)Man(a1-3)[GlcNAc(b1-2)Man(b1-4)GlcNAc(b1-2)Man(a1-6)]Man(b1-4)GlcNAc(b1-4)GlcNAc
# Procedure, shortened: as §1
# [20] = target: Neu5Ac(a2-6)Gal(b1-4)GlcNAc(b1-2)Man(a1-3)[Man(a1-6)]Man(b1-4)GlcNAc(b1-4)GlcNAc
# Procedure, shortened: as §1
# [21] = target: Neu5Ac(a2-6)Gal(b1-4)GlcNAc(b1-2)Man(a1-3)[Neu5Ac(a2-6)Gal(b1-4)GlcNAc(b1-2)Man(a1-6)]Man(b1-4)GlcNAc(b1-4)GlcNAc
# Procedure, shortened: as §1
# [22] = target: Neu5Ac(a2-6)Gal(b1-4)GlcNAc(b1-2)Man(a1-6)Man(b1-4)GlcNAc(b1-4)GlcNAc
# Procedure, shortened: as §1
# [23] = target: Neu5Ac(a2-6)Gal(b1-4)GlcNAc(b1-2)Man(a1-6)[Gal(b1-4)GlcNAc(b1-2)Man(a1-3)]Man(b1-4)GlcNAc(b1-4)GlcNAc
# Procedure, shortened: as §1
# [24] = target: Neu5Ac(a2-6)Gal(b1-4)GlcNAc(b1-2)Man(a1-6)[GlcNAc(b1-2)Man(a1-3)]Man(b1-4)GlcNAc(b1-4)GlcNAc
# Procedure, shortened: as §1
# [25] = target: Neu5Ac(a2-6)Gal(b1-4)GlcNAc(b1-2)Man(a1-6)[Man(a1-3)]Man(b1-4)GlcNAc(b1-4)GlcNAc
# Procedure, shortened: as §1
# [26] = target: Neu5Ac(a2-6)Gal(b1-4)GlcNAc(b1-3)Gal(b1-3)GlcNAc
# Procedure, shortened: as §1
# [27] = target: Neu5Ac(a2-6)Gal(b1-4)GlcNAc(b1-3)Gal(b1-4)GlcNAc
# Procedure, shortened: as §1
# [28] = target: Neu5Ac(a2-6)Gal(b1-4)GlcNAc(b1-3)Gal(b1-4)GlcNAc(b1-3)Gal(b1-4)GlcNAc
# Procedure, shortened: as §1
# [29] = target: Neu5Ac(a2-6)Gal(b1-4)GlcNAc(b1-3)Gal(b1-4)[Fuc(a1-3)]GlcNAc(b1-3)Gal(b1-4)[Fuc(a1-3)]GlcNAc
# Procedure, shortened: as §1
# [30] = target: Neu5Ac(a2-6)Gal(b1-4)GlcNAc(b1-3)GalNAc
# Procedure, shortened: as §1
# [31] = target: Neu5Ac(a2-6)Gal(b1-4)GlcNAc6S
# Procedure, shortened: as §1
# Neu5Ac(a2-6)GalNAc = target: Neu5Ac(a2-6)GalNAc
# Procedure, shortened: as §1
# [32] = target: Neu5Ac(a2-6)GalNAc(b1-4)GlcNAc
# Procedure, shortened: as §1
# [33] = target: Neu5Ac(a2-6)GlcNAc(b1-4)GlcNAc
# Procedure, shortened: as §1
# [34] = target: Neu5Ac(a2-6)GlcNAc(b1-4)GlcNAc(b1-4)GlcNAc
# Procedure, shortened: as §1
binder,measurement,setting,value
B1,glycan array binding signal (z-score),[1],-0.509
same,glycan array binding signal (z-score),[2],1.14
same,glycan array binding signal (z-score),[3],-0.175
same,glycan array binding signal (z-score),[4],3.61
same,glycan array binding signal (z-score),[5],1.73
same,glycan array binding signal (z-score),[6],0.126
same,glycan array binding signal (z-score),[7],-0.691
same,glycan array binding signal (z-score),[8],-0.227
same,glycan array binding signal (z-score),[9],-0.142
same,glycan array binding signal (z-score),Neu5Ac(a2-3)GalNAc,0.417
same,glycan array binding signal (z-score),[10],0.417
same,glycan array binding signal (z-score),[11],-0.618
same,glycan array binding signal (z-score),[12],0.277
same,glycan array binding signal (z-score),[13],-0.472
same,glycan array binding signal (z-score),[14],-0.275
same,glycan array binding signal (z-score),Neu5Ac(a2-6)Gal,0.196
same,glycan array binding signal (z-score),Neu5Ac(a2-6)Gal(b1-4)Glc,-0.449
same,glycan array binding signal (z-score),[15],0.268
same,glycan array binding signal (z-score),[16],0.893
same,glycan array binding signal (z-score),[17],-0.036
same,glycan array binding signal (z-score),[18],-0.243
same,glycan array binding signal (z-score),[19],-0.667
same,glycan array binding signal (z-score),[20],0.072
same,glycan array binding signal (z-score),[21],0.28
same,glycan array binding signal (z-score),[22],-0.654
same,glycan array binding signal (z-score),[23],-0.278
same,glycan array binding signal (z-score),[24],-0.085
same,glycan array binding signal (z-score),[25],-0.549
same,glycan array binding signal (z-score),[26],-0.445
same,glycan array binding signal (z-score),[27],-0.855
same,glycan array binding signal (z-score),[28],0.65
same,glycan array binding signal (z-score),[29],-0.379
same,glycan array binding signal (z-score),[30],0.313
same,glycan array binding signal (z-score),[31],-0.619
same,glycan array binding signal (z-score),Neu5Ac(a2-6)GalNAc,-0.76
same,glycan array binding signal (z-score),[32],-1.12
same,glycan array binding signal (z-score),[33],-0.182
same,glycan array binding signal (z-score),[34],-0.434

# Retrieved one by one from above (2):
binder,measurement,setting,value
B1,glycan array binding signal (z-score),[16],0.893
same,glycan array binding signal (z-score),[6],0.126
